Measurements reported in PubChem BioAssay AID504774 (Drosophila RNAi Screening Center, 2011)
Test: 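Genes required for cells to withstand methyl methanesulphonate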 (primary screen). Cells: Drosophila Kc167 cells. Reagent: long dsRNA against Drosophila genes, about 0.25 µg dsRNA per well. Timing: about 6 days: 3 days knock-down, then 3 days with or without MMS. Treatment: methyl methanesulphonate 0.004% (w/v) for 3 days after knock-down. Detection: 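ATP-dependent luminescence as a measure of live cells in MMS-exposed wells, quantile normalised within each plate, with replicate values also given as a mean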. Direction: mean viability with MMS and viability with MMS: higher = more surviving cells after MMS.
The deposit covers about 23,000 reagents; this is an unselected part of those with a known target gene and a result. 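Values are quantile-normalised luminescence on an arbitrary scale; higher means more cells surviving MMS.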

The opening 4 entries, to show the layout:
mean viability with MMS,"viability with MMS, replicate 1","viability with MMS, replicate 2",Target gene,amplicon
3.45e6,3.92e6,3.93e6,srw (shrew),DRSC08201
3.55e6,4.05e6,4.00e6,CG16700,DRSC19755
3.62e6,4.15e6,4.06e6,CG13829,DRSC14679
3.49e6,3.94e6,3.99e6,CG8738,DRSC07256

The listing, from the start:
mean viability with MMS,"viability with MMS, replicate 1","viability with MMS, replicate 2",Target gene,amplicon
3.45e6,3.92e6,3.93e6,srw (shrew),DRSC08201
3.55e6,4.05e6,4.00e6,CG16700,DRSC19755
3.62e6,4.15e6,4.06e6,CG13829,DRSC14679
3.49e6,3.94e6,3.99e6,CG8738,DRSC07256
3.33e6,3.71e6,3.82e6,hyx (hyrax),DRSC14462
3.70e6,4.01e6,4.35e6,CG12490,DRSC04123
3.34e6,3.79e6,3.82e6,D19A,DRSC11133
3.49e6,4.00e6,3.94e6,CG5050,DRSC02807
3.59e6,4.16e6,3.99e6,spg (sponge),DRSC14373
3.52e6,4.13e6,3.83e6,spg (sponge),DRSC14881
3.57e6,3.81e6,3.83e6,nht (no hitter),DRSC01976
3.45e6,3.91e6,3.92e6,CG6028,DRSC15951
3.28e6,3.57e6,3.73e6,Mccc2 (Methylcrotonoyl-CoA carboxylase 2),DRSC04987
3.68e6,4.26e6,4.29e6,Clamp (Chromatin-linked adaptor for MSL proteins),DRSC03718
3.00e6,3.74e6,3.65e6,Clamp (Chromatin-linked adaptor for MSL proteins),DRSC21682
3.56e6,3.94e6,4.14e6,CG13084,DRSC02188
3.65e6,4.07e6,4.12e6,CG31373,DRSC16052
3.62e6,4.12e6,4.04e6,RabX5,DRSC08608
3.67e6,4.06e6,4.31e6,Coq6 (Coenzyme Q6),DRSC03040
3.48e6,3.96e6,3.90e6,CG15820,DRSC08480
3.61e6,4.04e6,4.15e6,CG33095,DRSC14441
3.40e6,3.92e6,3.78e6,CG10324,DRSC14230
3.47e6,3.75e6,4.04e6,Brd7-9 (Bromodomain containing 7/9),DRSC03017
3.52e6,3.97e6,4.03e6,CG32971,DRSC01372
3.51e6,4.01e6,3.96e6,GNBP3 (Gram-negative bacteria binding protein 3),DRSC11170
3.59e6,4.12e6,4.01e6,goe (gone early),DRSC19345
3.62e6,4.07e6,4.09e6,GstD10 (Glutathione S transferase D10),DRSC15346
3.40e6,3.80e6,3.90e6,CG12607,DRSC08287
3.56e6,4.00e6,4.05e6,PMP34 (Peroxisomal Membrane Protein 34),DRSC21939
3.52e6,4.04e6,3.94e6,AANATL3 (Arylalkylamine N-acetyltransferase-like 3),DRSC02089
3.45e6,3.88e6,3.92e6,CG2617,DRSC02712
3.50e6,3.88e6,4.04e6,CG5033,DRSC07410
3.59e6,4.01e6,4.12e6,CG9855,DRSC12344
3.50e6,3.79e6,3.81e6,CG4622,DRSC04479
3.64e6,4.07e6,4.19e6,Cisd2 (CDGSH iron sulfur domain 2),DRSC14904
3.31e6,3.56e6,3.80e6,Prp40 (pre-mRNA processing factor 40),DRSC00612
3.44e6,3.88e6,3.91e6,yuri (yuri gagarin),DRSC01453
3.40e6,3.82e6,3.84e6,yuri (yuri gagarin),DRSC01454
3.57e6,3.94e6,4.15e6,yuri (yuri gagarin),DRSC01943
3.61e6,4.09e6,4.13e6,yuri (yuri gagarin),DRSC01972
3.54e6,4.00e6,4.02e6,CG31647 (retired record),DRSC21903
3.63e6,4.10e6,4.09e6,CG32263,DRSC22431
3.65e6,4.49e6,3.82e6,CG31778,DRSC00283
3.59e6,4.04e6,4.09e6,Atg14 (Autophagy-related 14),DRSC14421
3.45e6,3.89e6,3.90e6,Sema1a (Semaphorin 1a),DRSC03433
3.45e6,3.94e6,3.89e6,dnr1 (defense repressor 1),DRSC03948
3.52e6,4.00e6,3.97e6,dnr1 (defense repressor 1),DRSC04122
